Assay results as given in PubChem BioAssay AID493014 (National Center for Advancing Translational Sciences (NCATS), 2011).
Hit rate of the full screen: of about 340,000 compounds, about 170 (0.05%) were called active. The inconclusive results got no clear call from the source; some entries with a clear call stand among them for comparison. The call rests on the fitted dose curve; in most records, active means well fitted inhibition curve with a large enough effect in the signal ratio, with a control signal flat (not every such curve was filed as active); inconclusive means small, poorly fitted or top-dose-only effect, or effect the other way, or a change in a side signal; inactive means flat fitted curve, though single readings scatter; the % refers to the signal ratio. Potencies of inconclusive entries are doubtful fits and often do not repeat.

assay: qHTS Assay to Find Inhibitors of Chronic Active B-Cell Receptor Signaling; conditions: ABC-DLBCL IkBa-CBG/CBR reporter, luminescence ratio (green luciferase fused to IkBa over red control in TMD8 lymphoma cells), 4 h; activity change, negative = inhibition: at 46.1 µM (top of the series);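 on activity change, negative = inhibition: plate controls were basal doxycycline-induced cells for no effect and cells given 10 µM MG132 for full effect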
Procedure, shortened: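 Compounds up to 46 uM were incubated four hours with TMD8 cells whose green CBG68 luciferase is fused to IkappaBalpha; red CBR luminescence normalised the signal, and concentration-effect curves were fitted to fusion, red and ratio data.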
Potency means the concentration at half of the fitted maximal effect.

| Structure (SMILES) | Potency | activity change, negative = inhibition |
| --- | --- | --- |
| Cc1cc(C)n2c(SCC(=O)Nc3ccc(F)cc3)nnc2n1 | inconclusive: 20 µM [falling, partial curve, poor fit] |  |
| CNc1oc(-c2ccco2)nc1C#N |  | inconclusive: 26.3% |
| COCCCn1c(SCC(=O)NNC(=O)c2cccc(O)c2)nnc1-c1ccncc1 |  | inconclusive: 12.7% |
| O=C(CCCN1C(=O)c2ccccc2C1=O)NCCCN1CCOCC1 | inconclusive: 18.4 µM [rising, partial curve, poor fit] |  |
| CN(C)c1ccc(C2Nc3ccccc3C(=O)N2CCCN2CCOCC2)cc1 (configuration not stated) |  | inconclusive: -21.6% |
| Cc1ccc(-c2nnc(CN3CCCCC3C)o2)cc1 (configuration not stated) |  | inconclusive: -0.666% |
| COc1ccc(NC(=O)c2cccc(N3C(=O)C4C5C=CC(C5)C4C3=O)c2)cc1 (configuration not stated) | inconclusive: 35.5 µM [falling, partial curve] |  |
| Cc1ccc2nc(NC(=O)CN(C)S(=O)(=O)c3cccc4nsnc34)sc2c1 |  | inconclusive: 20.5% |
| O=S(=O)(NCCNS(=O)(=O)c1c(F)cccc1F)c1ccc2c(c1)OCCO2 |  | inconclusive: -1.26% |
| Cc1cc(OCC(O)CN2CCCC2)ccc1C(C)C (configuration not stated) |  | inconclusive: -25.4% |
| COc1ccc(/C=C2\SC(=O)N(CC(=O)NC3CCS(=O)(=O)C3)C2=O)cc1 (configuration not stated) |  | inactive |
| CCOC(=O)/C=C1\SCC(=O)N1CCOc1cccc(Br)c1 | inconclusive: 20 µM [falling, partial curve, poor fit] |  |
| O=C(N/N=C/c1cccc([N+](=O)[O-])c1)c1ccc(Br)cc1 |  | inactive |
| Cc1cc(C)nc(NS(=O)(=O)c2ccc(NC(=O)c3cccc(N4C(=O)CCC4=O)c3)cc2)n1 |  | inactive |
| Brc1ccc(-c2ccc(/C=N/Nc3nc4ccccc4[nH]3)o2)cc1 | inconclusive: 4.61 µM [cytotoxic, partial curve] |  |
| O=C(Nc1ccccc1C(=O)NCCCn1ccnc1)c1ccc(Cl)cc1Cl | inconclusive: 18.4 µM [falling, single point] |  |
| C/C(=N/NS(=O)(=O)c1ccc(Br)cc1)c1ccc(NC(=O)c2ccc(C)o2)cc1 |  | inconclusive: -1.83% |
| Cc1ccc(N2C(=O)CC(Sc3nccc(C)n3)C2=O)cc1 (configuration not stated) |  | inactive |
| CCOC(=O)N1CCN(C(c2cccnc2)c2ccc3cccnc3c2O)CC1 (configuration not stated) |  | inconclusive: 19.5% |
| COc1ccc(-n2c(N)c(C#N)c3ccc([N+](=O)[O-])cc3c2=O)cc1 | inconclusive: 23.1 µM [falling, partial curve] |  |
| COc1ccc(-c2cnn3cc(-c4cccc(Cl)c4)cnc23)cc1 |  | inconclusive: 1.23% |

Some of the entries so far, bar-delimited.
Structure (SMILES) | Potency | activity change, negative = inhibition
O=C(Nc1ccccc1C(=O)NCCCn1ccnc1)c1ccc(Cl)cc1Cl | inconclusive: 18.4 µM [falling, single point] | 
C/C(=N/NS(=O)(=O)c1ccc(Br)cc1)c1ccc(NC(=O)c2ccc(C)o2)cc1 |  | inconclusive: -1.83%
Cc1ccc(N2C(=O)CC(Sc3nccc(C)n3)C2=O)cc1 (configuration not stated) |  | inactive
CCOC(=O)N1CCN(C(c2cccnc2)c2ccc3cccnc3c2O)CC1 (configuration not stated) |  | inconclusive: 19.5%
COc1ccc(-n2c(N)c(C#N)c3ccc([N+](=O)[O-])cc3c2=O)cc1 | inconclusive: 23.1 µM [falling, partial curve] | 
COc1ccc(-c2cnn3cc(-c4cccc(Cl)c4)cnc23)cc1 |  | inconclusive: 1.23%

Next part.

| Structure (SMILES) | Potency | activity change, negative = inhibition |
| --- | --- | --- |
| Cc1cc(C(=O)N/N=C2\CC(=O)c3ccccc32)c(C)n1-c1ccc(F)cc1 |  | inactive |
| Oc1ccc(/C=C/c2cc(O)cc(O)c2)cc1 | inconclusive: 10 µM [cytotoxic, partial curve] |  |
| CC(=O)C1=C(c2ccc(Cl)cc2)N(C(C)=O)n2c(nnc2C2CCCCC2)S1 |  | inactive |
| COc1ccc(-c2nc(CCNS(=O)(=O)c3ccc4c(c3)OCCO4)cs2)cc1 |  | inactive |
| CC(C)(C)[C@@H]1COC(=O)[C@H](Cc2ccc(F)cc2)C/C=C\C[C@@H](CC(=O)NCCO)C(=O)N1 |  | inconclusive: -1.24% |
| CC(C)(C)c1ccc(Cn2c(=N)n(CC(O)c3ccco3)c3ccccc32)cc1 (configuration not stated) | inconclusive: 22.4 µM [falling, single point] |  |
| COC(=O)c1ccc(Oc2nc(C)cc(Oc3ccccc3)n2)cc1 |  | inconclusive: -11.2% |
| O=C1CSC(c2cccnc2)N1CCc1ccccn1 (configuration not stated) |  | inconclusive: -3.62% |
| CCc1c(C2(O)CCCCC2)[nH]c2cnccc12 |  | inactive |
| O=C(Nc1ccc(-c2ccc(N3CCCCC3)nn2)cc1)c1ccco1 |  | inconclusive: 22% |
| CN(CC(=O)Nc1ccc(F)cc1)C(=O)COC(=O)c1ccc(-c2ccccc2)cc1 |  | inactive |
| CCCOC(=O)c1ccc(NC(=O)/C=C/c2cccs2)cc1 | inconclusive: 23.1 µM [falling, partial curve] |  |
| O=c1ccc2ccccc2n1Cc1cccc(F)c1 |  | inconclusive: 4.83% |
| CNC(=O)c1sccc1SCc1ccc(Cl)cc1Cl | inconclusive: 13 µM [rising, single point] |  |
| COc1cc(NC(=O)c2ccco2)c(OC)cc1NC(=O)c1cc(OC)c(OC)c(OC)c1 | inconclusive: 16.4 µM [rising, partial curve, poor fit] |  |
| FC(F)(F)c1cccc(Cc2noc(CN3C[C@@H]4CCC[C@H]3C4)n2)c1 |  | inactive |
| COc1ccc(OC)c(N(CC(=O)Nc2cccnc2)S(=O)(=O)c2ccc(C)cc2)c1 | inconclusive: 0.411 µM [falling, full curve, poor fit] |  |
| Cc1nc(COc2ccc(C(=O)Nc3ccccc3N3CCOCC3)cc2)cs1 |  | inconclusive: 1.08% |
| Nc1cc(C(=O)OCC(=O)N2CCCC2=O)ccc1Cl |  | inconclusive: 0.0431% |
| CCNc1nc(NCC)nc(SCCOC(=O)Nc2ccc(Cl)cc2Cl)n1 |  | inactive |
| O=C(NCCC1CC1(Cl)Cl)c1ccc([N+](=O)[O-])cc1 (configuration not stated) |  | inconclusive: 0.337% |

| Structure (SMILES) | Potency | activity change, negative = inhibition |
| --- | --- | --- |
| Cc1ccc([N+](=O)[O-])cc1NC(=S)NC(=O)c1cccnc1 |  | inactive |
| O=C(Nc1nc(-c2ccc(F)c(F)c2)cs1)c1cc([N+](=O)[O-])ccc1N1CCOCC1 |  | inconclusive: -17.6% |
| CN(C)Cc1c(O)ccc2c1O/C(=C\C=C\c1ccccc1)C2=O |  | inconclusive: -24.6% |
| Cc1cc2c(c(SCC(=O)NCc3ccccc3Cl)n1)C(=O)OC2 |  | inconclusive: 4.1% |
| COc1ccc(S(=O)(=O)N2CCOCC2)cc1NC(=O)c1cc2c(s1)CCCC2 |  | inconclusive: -1.25% |
| O=c1sc(N2CCN(c3ccc(F)cc3)CC2)nc2ccsc12 | inconclusive: 0.0731 µM [rising, full curve] |  |
| Cc1cccc(/C(N)=N/OC(=O)Cc2ccccc2)c1 |  | inconclusive: 2.62% |
| O=C(NC(=S)Nc1ccc(Cl)cn1)c1cc([N+](=O)[O-])ccc1N1CCOCC1 |  | inactive |
| O=C(CCCN1C(=O)/C(=C/c2cccc(Br)c2)SC1=S)NCCCN1CCOCC1 | inconclusive: 8.91 µM [falling, partial curve] |  |
| Cc1ccc(CSc2nnc(-c3cccs3)n2C)cc1 | inconclusive: 29.1 µM [falling, single point] |  |
| COc1ccc(/C=N/Nc2nc3ccccc3[nH]2)cc1OC |  | inconclusive: -25.5% |
| O=C1NC(=Nc2ccccc2)SC1Cc1cccc(Cl)c1Cl (configuration not stated) |  | inconclusive: -5.41% |
| COc1cc2c(cc1OC)C1Cc3ccc(OC)c(OC)c3CN1CC2 (configuration not stated) |  | inactive |
| C/C(=N\NC(=O)c1cccc(O)c1)c1cccc(NC(=O)c2ccc(F)cc2)c1 | inconclusive: 31.6 µM [rising, partial curve] |  |
| Cc1cc(Cl)ccc1NC(=S)NCCC(c1ccccc1)c1ccccc1 |  | inconclusive: 3.39% |
| O=C(c1ccc(N2C(=O)c3ccccc3C2=O)cc1)N1CCCCC1 |  | inconclusive: 8.04% |
| CCN(CC)S(=O)(=O)c1ccc(Cl)c(NC(=O)COC(=O)c2cc(-c3ccccc3Cl)nc3ccccc23)c1 |  | inconclusive: 6.45% |
| O=C(COc1ccc2ccccc2c1Br)Nc1ccncc1 |  | inconclusive: 0.682% |
| C/C(=N\Nc1ccc(C#N)cc1[N+](=O)[O-])c1ccc(O)cc1 |  | inactive |
| NS(=O)(=O)c1ccc(NC(=S)NC(=O)c2ccc(-c3ccccc3)cc2)cc1 |  | inconclusive: -0.289% |
| CCCc1cc(C(=O)Nc2ccc(C(=O)c3ccccc3)cc2)n(C)n1 |  | inactive |

| Structure (SMILES) | Potency | activity change, negative = inhibition |
| --- | --- | --- |
| CCN1CCN(c2cc(C)c3cc(NC(=S)N4CCN(c5ccccc5)CC4)ccc3n2)CC1 |  | inactive |
| O=[N+]([O-])c1c(C(Cl)Cl)nn(-c2ccccc2)c1N1CCCC1 |  | inconclusive: 9.68% |
| O=C(Oc1cc(=O)oc2ccccc12)c1ccccc1 | inconclusive: 12.6 µM [falling, partial curve] |  |
| COc1cccc(NC(=O)CN(C)C(=O)c2sc3cc(Cl)ccc3c2Cl)c1 |  | inconclusive: -2.16% |
| Cc1ccc(C(=O)Cc2nc3ccccc3[nH]2)cc1 |  | inconclusive: -0.314% |
| Fc1ccccc1Cn1nnc2c(NCc3ccccn3)ncnc21 |  | inconclusive: 9.13% |
| CCOc1ccc(NC(=O)CC2C(=O)NCCN2C(=O)c2ccc(Cl)cc2)cc1 (configuration not stated) |  | inactive |
| CCOC(=O)c1cc2sccc2n1Cc1ccc(C#N)cc1 | inconclusive: 23.1 µM [falling, single point] |  |
| Cc1ccc(CNC(=O)c2ccc(CSCc3ccccc3C)o2)cc1 |  | inconclusive: 10.4% |
| COc1ccc(C2C3=C(CC(C)(C)CC3=O)Nc3c2c(=O)n(C)c(=O)n3C)cc1OC (configuration not stated) |  | inactive |
| c1ccc2c(c1)oc1c(NCCN3CCOCC3)ncnc12 |  | inconclusive: 1.06% |
| CCCCNC(=S)NNC(=O)CCn1cc(C)cn1 | inconclusive: 32.6 µM [falling, partial curve, poor fit] |  |
| O=C(Nc1ccc(F)c(Cl)c1)Nn1cnnc1 |  | inactive |
| CC(c1nnc(SCC(=O)Nc2sccc2C#N)n1-c1ccc(Cl)cc1)N(C)C (configuration not stated) |  | inconclusive: 8.89% |
| CCC(C)[C@H](NC(=O)NC1CCN(Cc2ccccc2)CC1)C(=O)OC (some centres not stated) |  | inactive |
| N#Cc1ccc(CN2CCN(C(=O)CCNS(=O)(=O)c3ccc(F)c(Cl)c3)CC2)cc1 |  | inconclusive: 2.29% |
| Fc1ccc(-c2n[nH]c(=S)n2Cc2ccccc2)cc1 |  | inconclusive: 5.1% |
| CC1(C)Cc2c(sc3c2c(=N)n(Cc2ccco2)c(=O)n3Cc2ccc(F)cc2)CO1 |  | inconclusive: 1.86% |
| COc1ccc(-c2ccc(/C=C3\C(=O)N(c4ccccc4)N=C3c3ccccc3)o2)c([N+](=O)[O-])c1 | inconclusive: 0.398 µM [falling, full curve, poor fit] |  |
